Data as given in patent US20240277698A1, “METHODS OF USING ALDOSTERONE SYNTHASE INHIBITORS” (CINCOR PHARMA, INC., priority 2021, published 2024).
At least one structure is not confirmed: it was looked up by name or label, or the drawing left a doubt.

Amino acid sequences for entries named in this document (tags omitted). Residues count along the entry.
UniProt Q86VL8, 1-566 isoform Q86VL8-3, species assumed: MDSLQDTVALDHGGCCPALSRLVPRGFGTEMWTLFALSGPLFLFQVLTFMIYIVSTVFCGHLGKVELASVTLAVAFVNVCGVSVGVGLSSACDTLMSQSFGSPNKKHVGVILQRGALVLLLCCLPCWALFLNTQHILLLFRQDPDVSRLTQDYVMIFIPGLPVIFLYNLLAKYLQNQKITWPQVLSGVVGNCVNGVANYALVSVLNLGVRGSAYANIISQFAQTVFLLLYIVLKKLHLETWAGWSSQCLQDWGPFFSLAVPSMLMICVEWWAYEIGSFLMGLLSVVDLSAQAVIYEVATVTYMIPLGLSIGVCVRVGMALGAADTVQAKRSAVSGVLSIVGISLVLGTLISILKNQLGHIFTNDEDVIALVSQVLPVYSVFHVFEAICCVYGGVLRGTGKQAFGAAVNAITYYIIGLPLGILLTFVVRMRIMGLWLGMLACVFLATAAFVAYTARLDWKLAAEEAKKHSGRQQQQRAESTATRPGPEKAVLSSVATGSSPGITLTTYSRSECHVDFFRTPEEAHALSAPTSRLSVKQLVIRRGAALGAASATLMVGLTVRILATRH

Assays:
MATE-1 = molecular target: T1, MATE-1 (Homo sapiens, UniProt Q96FL8); assay: Nonclinical assessment of renal transporter inhibition; assay type: in vitro ADME; conditions: non-time-dependent manner
T1 sequence (Q96FL8 1-570): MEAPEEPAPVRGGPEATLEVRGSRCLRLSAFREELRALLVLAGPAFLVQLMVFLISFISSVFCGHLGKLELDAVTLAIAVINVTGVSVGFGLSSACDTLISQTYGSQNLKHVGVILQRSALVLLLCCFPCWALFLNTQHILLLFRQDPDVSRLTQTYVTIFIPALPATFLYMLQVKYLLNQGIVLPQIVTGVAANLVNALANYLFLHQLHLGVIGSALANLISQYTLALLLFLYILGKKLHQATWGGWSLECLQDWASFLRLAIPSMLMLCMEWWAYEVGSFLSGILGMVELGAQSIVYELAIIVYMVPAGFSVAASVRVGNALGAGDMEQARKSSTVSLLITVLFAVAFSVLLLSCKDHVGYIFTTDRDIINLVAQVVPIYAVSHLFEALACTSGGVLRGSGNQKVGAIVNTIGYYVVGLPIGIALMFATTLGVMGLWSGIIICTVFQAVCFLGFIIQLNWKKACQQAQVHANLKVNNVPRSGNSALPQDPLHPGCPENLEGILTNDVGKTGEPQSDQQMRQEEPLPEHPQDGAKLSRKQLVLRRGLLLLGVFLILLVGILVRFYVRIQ

MATE2-K = MATE2-K (Homo sapiens, UniProt Q86VL8); assay: as above; assay type: in vitro ADME; conditions: non-time-dependent manner
aldosterone synthase [1] = molecular target: T2, aldosterone synthase (Homo sapiens, UniProt P19099); assay: Inhibition of human aldosterone synthase; assay type: biochemical
T2 sequence (P19099 25-503): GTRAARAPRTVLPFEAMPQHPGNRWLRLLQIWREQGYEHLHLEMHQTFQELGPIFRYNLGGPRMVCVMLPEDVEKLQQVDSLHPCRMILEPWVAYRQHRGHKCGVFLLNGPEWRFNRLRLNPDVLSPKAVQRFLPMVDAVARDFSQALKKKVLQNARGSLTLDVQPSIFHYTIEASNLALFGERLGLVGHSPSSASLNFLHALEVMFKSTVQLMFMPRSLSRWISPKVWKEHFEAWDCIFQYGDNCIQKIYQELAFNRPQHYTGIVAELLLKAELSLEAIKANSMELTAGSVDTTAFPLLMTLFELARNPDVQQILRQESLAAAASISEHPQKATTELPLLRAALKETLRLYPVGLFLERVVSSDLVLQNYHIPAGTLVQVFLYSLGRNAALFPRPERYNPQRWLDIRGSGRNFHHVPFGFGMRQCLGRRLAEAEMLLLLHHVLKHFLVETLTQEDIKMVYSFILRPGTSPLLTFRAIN

aldosterone synthase [2] = assay: Preclinical in-vivo studies: aldosterone and cortisol levels; conditions: primarily primates, wide dose range

CCC(=O)NC1CCCc2c(-c3ccc4c(c3)CCC(=O)N4C)cncc21 (centres unmarked) [Compound 1, N-(4-(1-methyl-2-oxo-1,2,3,4-tetrahydroquinolin-6-yl)-5,6,7,8-tetrahydroisoquinolin-8-yl)propionamide]
inhibition of renal transporter MATE-1 (MATE-1): inhibitor | inhibition of renal transporter MATE2-K (MATE2-K): inhibitor | inhibition of human aldosterone synthase (aldosterone synthase [1]): highly potent, selective, and competitive inhibitor | aldosterone (aldosterone synthase [2]): significantly lowered aldosterone | cortisol levels (aldosterone synthase [2]): without affecting cortisol levels
